At least one peptide structure holds a part that was inferred or is arguable (an end, a ring closure or a residue). Residues, ends and D or L forms follow the SMILES beside them.
Columns and labels:
[1] = tested on: bone marrow cells of rats; experiment: Determination of alkaline phosphatase activity in bone marrow cells of rats, in vivo (intraperitoneal administration, cells cultured ex vivo); details: 500 μg intraperitoneally three times in a week; bone marrow cells cultured one week; PBS control 3.2±1.1
[2] = tested on: bone marrow cells of rats; experiment: Determination of alkali phosphatase activity in bone marrow cells of rats, in vitro (alkaline phosphatase staining); format: cell-based, rats (Lewis); details: rat bone marrow cells, one week of incubation; compared with human IL-1 10 ng/ml and with nothing added

`CC[C@H](C)[C@H](NC(=O)[C@H](C)NC(=O)[C@H](CO)NC(=O)[C@H](CC(C)C)NC(=O)[C@H](CCC(=O)O)NC(=O)[C@@H](NC(=O)[C@@H]1CCCN1C(=O)[C@@H](NC(=O)[C@H](CS)NC(=O)[C@H](CS)NC(=O)[C@H](C)NC(=O)[C@H](CCCCN)NC(=O)[C@@H]1CCCN1C(=O)[C@@H](NC(=O)[C@H](CCCCN)NC(=O)[C@H](CO)NC(=O)[C@H](CC(N)=O)NC(=O)[C@@H](NC(=O)[C@H](CO)NC(=O)[C@@H](N)CC(N)=O)C(C)C)[C@@H](C)CC)C(C)C)[C@@H](C)O)C(=O)O` [Example 1] (H-NSVNSKIPKACCVPTELSAI-OH) was tested, and the “alkaline phosphatase activity in the cell solution” value [1] was 6.3±1.4 μmol/min·mg-protein and the “alkaline phosphatase activity (staining)” value [2] was “remarkable increase in the alkaline phosphatase activity”.
